Experimental data: US20230152323A1 (NORDIC BIOSCIENCE A S, published 2023)
No constants are given. Whether binding was seen depends on the method and setting. Some results given as binding are weak or reduced against the parent protein; the word gives no strength.

Molecular target: T1, SPARC-M, the MMP-generated fragment of SPARC with the N-terminus … (human) (UniProt P09486)
T1 sequence (looked up): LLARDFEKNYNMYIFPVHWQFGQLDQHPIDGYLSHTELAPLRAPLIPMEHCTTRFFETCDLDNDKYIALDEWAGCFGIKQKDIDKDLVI
Assay: competitive SPARC-M ELISA on MMP digests of recombinant human SPARC

binding: binds
B1: SPARC-M monoclonal antibody (antibody, mouse IgG1, kappa, V domains shown)
VH: EVKLVESGGGLVKPGGSLKLSCAASGFTFSRNAMSWVRQTPEKRLEWVASISTSDNTYYPDSVKGRFTISKDNARNILYLQMSSLRSEDTAMYYCASGFDVGAYWGQGTLVTVSA
VL: DVLMTQTPLSLPVSLGDQASISCRSSQSIVHSNGNTYLEWYLQKPGQSPKLLIYKVSNRFSGVPDRFSGSGSGTDFTLKISRVDTEDLGVYYCFQGSHVPLTFGAGTKLELKR
notes: also called the antibody; the selected antibody
